PubChem BioAssay AID445 (National Center for Advancing Translational Sciences (NCATS), 2006)
The list shows a part of the results. The main result of the screen is listed elsewhere. These columns were measured beside it and carry no call. The list favours compounds with an active or inconclusive main result. Words in brackets tell the shape of the fitted curve; partial curves, single points and poor fits give uncertain potencies.

test: IkB Signaling; details: ABC-DLBCL IkBa-CBG/CBR dual luciferase ratio (green luciferase fused to IkBa over red control in OCI-Ly3 lymphoma cells), 4 h; measured here: control luc red channel unless noted
In short: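 Luminescence ratio of IκBα-fused green versus native red beetle luciferase in OCI-Ly3 cells, 4 h post-doxycycline with compound; red signal alone, scaled from basal (0%) to zero light (-100%), flagged nonspecific or cytotoxic effects.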

SMILES	AC50
Cc1cc(C)cc(Nc2cc(C(=O)NC3CCCCC3)c3ccccc3n2)c1	7.94 µM [rising, partial curve]
CCOC(=O)c1ccccc1NC(=O)CSc1nnc(CC)n2c1cc1occc12	20 µM [falling, single point]
COc1ccc(C)cc1NC(=O)c1cc(S(=O)(=O)N2CCC(C)CC2)ccc1F	15.8 µM [falling, partial curve, poor fit]
CCCCc1ccc(C(=O)Nc2ccc3nc(N4CCN(CC)CC4)cc(C)c3c2)cc1	15.8 µM [falling, partial curve]
O=C(CSc1nnc2ccccn12)c1ccccc1	3.16 µM [falling, full curve]
CCOC(=O)c1cc(C)n(CC2CCC(C(=O)Nc3ccc(OC)cc3)CC2)c1C (configuration not stated)	10 µM [falling, partial curve]
CCc1ccccc1NC(=O)c1cc(-c2ccc(Cl)s2)nc2ccccc12	5.01 µM [falling, full curve, poor fit]
Cc1oc(-c2ccccc2F)nc1Cn1c(SCc2cccc(C(F)(F)F)c2)nc2ccncc21	3.16 µM [falling, full curve, poor fit]
O=C(Nc1ccccc1F)c1cnc(N2CCCCC2)c2ccccc12	1 µM [rising, full curve, poor fit]
COc1ccccc1-c1nnc(C2CCN(C(=O)c3ccccc3C)CC2)o1	0.2 µM [falling, partial curve, poor fit]
COc1ccc(N(CC(=O)Nc2cc(OC)cc(OC)c2)S(=O)(=O)c2c(C)noc2C)cc1	10 µM [falling, partial curve]
Cc1cccc(-n2c(C)cc(C(=O)C(=O)Nc3nncs3)c2C)c1	10 µM [falling, partial curve]
Cc1ccc(O)c(NC(=O)CCS(=O)(=O)c2nc(-c3cccs3)cc(C(F)(F)F)n2)c1	3.16 µM [falling, full curve]
Cc1ccc(C(C)C)c(OCC(=O)Nc2cc(-c3nc4ccccc4[nH]3)ccc2C)c1	10 µM [falling, full curve]
CCn1nc(C)c2c(-c3ccccc3)cc(=O)n(C(C)C(=O)Nc3ccc(OC)c(OC)c3)c21 (configuration not stated)	10 µM [rising, partial curve]
CCOC(=O)c1ccccc1NC(=O)CN(c1ccccc1)S(=O)(=O)c1ccc(OCC)cc1	10 µM [falling, partial curve]
Cn1c(N2CCN(C(=O)NCc3ccccc3)CC2)nc2ccccc21	25.1 µM [falling, partial curve]
Cc1ccc(CNC(=O)c2cn(C3CCCCC3)c(=O)c3c2c2ccccc2n3C)o1	12.6 µM [falling, partial curve]
Cc1cc(C)cc(NC(=O)Cn2nnc(-c3ccccc3F)n2)c1	0.00631 µM [rising, full curve, poor fit]
O=C(CCc1cn(Cc2ccc(F)cc2)c2ccccc12)NC1CCCCC1	6.31 µM [falling, full curve]
CCOC(=O)N1CCc2c(sc3c2c(=O)n(-c2ccc(CC)cc2)c(=O)n3Cc2cccc(Cl)c2)C1	12.6 µM [falling, partial curve]

SMILES	AC50
Cc1ccc(C)c(N2CCN(C(=O)C3CCC(CNS(=O)(=O)c4cccs4)CC3)CC2)c1 (configuration not stated)	12.6 µM [falling, partial curve]
OC(COc1c(Br)cc(Br)cc1Br)CN1CCOCC1 (configuration not stated)	3.98 µM [falling, partial curve]
CCn1cc(C(=O)OCC(=O)Nc2cc(Cl)ccc2C)c(=O)c2ccc(C)nc21	0.00631 µM [falling, full curve]
Cc1ccc(NC(=O)CN2C(=O)C(c3ccc(F)cc3)=NC23CCCCCC3)c(C)c1	25.1 µM [falling, single point]
O=C(NCCSc1c[nH]c2ccccc12)c1ccc(Cl)cc1	20 µM [falling, partial curve]
Cc1ccc(N2CC(NC(=O)CCCc3ccccc3)CC2=O)cc1 (configuration not stated)	3.16 µM [falling, partial curve]
COc1cccc(C(c2nnnn2CCc2ccccc2)N2CCN(c3ccccc3)CC2)c1OC (configuration not stated)	12.6 µM [falling, partial curve]
O=C(Cn1nc(Cc2cccnc2)c2ccccc2c1=O)N1CCN(c2ccccc2F)CC1	25.1 µM [falling, partial curve]
COc1ccc(CNC(=O)c2ccc(CN3C(=O)C(C)=C(c4ccc(C)cc4)S3(=O)=O)cc2)cc1	6.31 µM [falling, partial curve]
CCOC(=O)c1c(Nc2ccc(C)c(C)c2)nnc(-c2ccccc2)c1-c1ccccc1	12.6 µM [falling, partial curve]
O=C(NCCc1ccccc1)c1c[nH]c2ccc(S(=O)(=O)Nc3ccc(F)cc3F)cc2c1=O	1.58 µM [rising, partial curve]
CCOc1ccc(NC(=O)NCCN2CCN(c3cc(Cl)ccc3C)CC2)cc1	31.6 µM [falling, partial curve]
COc1ccc(C(=O)CC2(O)C(=O)N(Cc3ccccc3)c3ccc(Br)cc32)cc1 (configuration not stated)	20 µM [falling, partial curve]
O=C(NCc1ccco1)C1CCN(c2nc3ccccc3n2Cc2ccc(F)cc2)CC1	15.8 µM [falling, partial curve]
CCOC(=O)c1c(NC(=O)CSc2nnc(-c3cccnc3)o2)sc(C(C)=O)c1C	20 µM [falling, single point]
CCCCOc1cccc(C(=O)N(Cc2cccs2)c2ccc(OC)cc2)c1	31.6 µM [falling, single point]
CC(C)(C)c1ccc(-c2nc(SCC(=O)Nc3ccc(Cl)cc3)[nH]c(=O)c2C#N)cc1	20 µM [falling, partial curve]
CC(=O)NCCn1c(SCC(=O)Nc2ccc(C)cc2)nc2ccccc2c1=O	3.16 µM [rising, partial curve, poor fit]
Cc1c(-c2ccc(Cl)cc2)c(=O)oc2ccc(OC(=O)N3CCOCC3)cc12	3.98 µM [rising, partial curve]
COc1ccccc1CNC(=O)CC(c1ccc(OC)c(OC)c1)N1Cc2ccccc2C1=O (configuration not stated)	0.0158 µM [rising, full curve, poor fit]
CC1CCN(c2nc(-c3ccco3)c3c(c2C#N)CC(C)(C)OC3)CC1	10 µM [falling, partial curve]

Part of the list above, with bars between the fields:
SMILES | AC50
COc1ccc(CNC(=O)c2ccc(CN3C(=O)C(C)=C(c4ccc(C)cc4)S3(=O)=O)cc2)cc1 | 6.31 µM [falling, partial curve]
CCOC(=O)c1c(Nc2ccc(C)c(C)c2)nnc(-c2ccccc2)c1-c1ccccc1 | 12.6 µM [falling, partial curve]
O=C(NCCc1ccccc1)c1c[nH]c2ccc(S(=O)(=O)Nc3ccc(F)cc3F)cc2c1=O | 1.58 µM [rising, partial curve]

Next part:

SMILES	AC50
Cc1ccc(Cl)cc1-n1ncc2c(N3CCCCCC3)ncnc21	12.6 µM [falling, partial curve]
Cc1ccccc1CN1C(=O)c2ccccc2Sc2ccc(C(=O)NC3CCCC3)cc21	25.1 µM [falling, single point]
CCCN(C(=O)CCc1nc(-c2ccc(OC)cc2)no1)c1ccccc1F	20 µM [falling, partial curve]
COc1cccc2cc(-c3nnc(Nc4c(F)cccc4F)s3)c(=O)oc12	0.0501 µM [falling, full curve]
COc1cc(-c2nc(Cn3nnc(C(=O)Nc4ccc(C)cc4C)c3C)c(C)o2)cc(OC)c1OC	3.98 µM [falling, full curve]
Cc1oc(-c2ccccc2F)nc1CS(=O)(=O)CC(=O)NCCc1ccc(Cl)cc1	25.1 µM [falling, single point]
COc1ccc(-n2nnnc2SCC(=O)c2cc3ccccc3o2)cc1	25.1 µM [falling, partial curve]
COc1ccc(NC(=O)Cn2ncc3c2-c2ccccc2OC3)cc1Cl	20 µM [falling, single point]
O=C(CSc1nc2c([nH]c3ccccc32)c(=O)n1-c1ccccc1)Nc1ccc2c(c1)OCCO2	0.126 µM [falling, full curve]
CCOC(=O)N1CCN(C(=O)CSCC(=O)Nc2nc(-c3ccccc3)cs2)CC1	12.6 µM [falling, partial curve]
Cc1ccc(C)c2sc(N3CCN(C(=O)C(C)(C)C)CC3)nc12	3.16 µM [rising, partial curve]
CCN(CCCNC(=O)c1cc2c(Cl)nc3ccccc3c2s1)Cc1ccccc1	39.8 µM [falling, single point]
COc1ccc(CCNC(=O)Cn2ncc3c(=O)oc4ccccc4c32)c(OC)c1	39.8 µM [falling, partial curve]
CCOc1ccc(NC(=O)c2oc3ccccc3c2NC(=O)c2cc(C)cc(C)c2)cc1	20 µM [falling, single point]
CCOc1ccc(NC(=O)c2cnc(Nc3ccccc3OC)c3ccccc23)cc1	3.16 µM [falling, full curve]
N#Cc1nc(-c2ccccc2F)oc1NCc1cccc2c1OCO2	25.1 µM [falling, partial curve]
Cc1cccc(Cc2c(C)nc3nc(SCC(=O)NCc4ccccc4)nn3c2C)c1	25.1 µM [falling, partial curve]
CC(C)Oc1ccc(CNC(=O)c2cccc(NC(=O)N3CCSc4ncccc43)c2)cc1	15.8 µM [falling, partial curve]
CCC(=O)N1CCc2cc(Br)cc(S(=O)(=O)N3CCCC(C(=O)Nc4cccc(F)c4)C3)c21 (configuration not stated)	15.8 µM [falling, partial curve]
CCOC(=O)CSc1nc2sc3c(c2c(=O)n1-c1ccccc1)CCC(C(C)(C)C)C3 (configuration not stated)	3.98 µM [falling, partial curve]
